# Measured values from the supplement of paper PMC11438910.
# Some of the results follow. Only a few entries rise above the background.
# B1: 4-127.5 (protein)
# chain 1: QVQLQESGPGLVKPSETLSLTCAVSGYSISSGYGWSWIRQPPGKGLEWIGYIGGSDSSTNYNPSLKSRVTISKDTSKNQLSLKLRSVTAADTAVYYCGSRGAVAGLGGLDSWGQGLLVTVSS
# chain 2: QSVLTQPPSVSGAPGQRVTISCTGSSSNIGAGYGVQWYQQLPGTAPKLLIYENNKRPSGVFDRFSGSQSGTSGSLTITGLQSEDEADYYCQSYDSSLKAVLFGGGTRLTVL
# How the values were obtained:
# Assay in all cases: fluorescence intensity of antibody binding to polysaccharide-coupled beads; higher = stronger binding
# [1] = molecular target: pneumococcal polysaccharide Pn38
# [2] = molecular target: pneumococcal polysaccharide Pn39
# [3] = molecular target: pneumococcal polysaccharide Pn4
# [4] = molecular target: pneumococcal polysaccharide Pn40
# [5] = molecular target: pneumococcal polysaccharide Pn41A
# [6] = molecular target: pneumococcal polysaccharide Pn41F
# [7] = molecular target: pneumococcal polysaccharide Pn42
# [8] = molecular target: pneumococcal polysaccharide Pn43
# [9] = molecular target: pneumococcal polysaccharide Pn44
# [10] = molecular target: pneumococcal polysaccharide Pn45
# [11] = molecular target: pneumococcal polysaccharide Pn46
# [12] = molecular target: pneumococcal polysaccharide Pn47A
# [13] = antibody concentration 81.7561 ng/mL
# [14] = antibody concentration 437.17 ng/mL
# [15] = antibody concentration 2337.65 ng/mL
# [16] = antibody concentration 12500 ng/mL
# [17] = antibody concentration 0.1 ng/mL
# [18] = antibody concentration 0.534724 ng/mL
# [19] = antibody concentration 2.8593 ng/mL
# [20] = antibody concentration 15.2894 ng/mL
binder,measurement,setting,value
B1,fluorescence intensity,[1]; [13],28.5 MFI
same,fluorescence intensity,[1]; [14],28.5 MFI
same,fluorescence intensity,[1]; [15],31 MFI
same,fluorescence intensity,[1]; [16],55 MFI
same,fluorescence intensity,[2]; [17],18.5 MFI
same,fluorescence intensity,[2]; [18],18.5 MFI
same,fluorescence intensity,[2]; [19],18 MFI
same,fluorescence intensity,[2]; [20],19 MFI
same,fluorescence intensity,[2]; [13],19 MFI
same,fluorescence intensity,[2]; [14],18.5 MFI
same,fluorescence intensity,[2]; [15],25 MFI
same,fluorescence intensity,[2]; [16],85.5 MFI
same,fluorescence intensity,[3]; [17],20 MFI
same,fluorescence intensity,[3]; [18],19.8 MFI
same,fluorescence intensity,[3]; [19],18.5 MFI
same,fluorescence intensity,[3]; [20],19.8 MFI
same,fluorescence intensity,[3]; [13],19.5 MFI
same,fluorescence intensity,[3]; [14],21 MFI
same,fluorescence intensity,[3]; [15],27 MFI
same,fluorescence intensity,[3]; [16],31.8 MFI
same,fluorescence intensity,[4]; [17],17.8 MFI
same,fluorescence intensity,[4]; [18],17 MFI
same,fluorescence intensity,[4]; [19],17 MFI
same,fluorescence intensity,[4]; [20],16.5 MFI
same,fluorescence intensity,[4]; [13],16.5 MFI
same,fluorescence intensity,[4]; [14],17 MFI
same,fluorescence intensity,[4]; [15],20.5 MFI
same,fluorescence intensity,[4]; [16],72.8 MFI
same,fluorescence intensity,[5]; [17],23.2 MFI
same,fluorescence intensity,[5]; [18],24.5 MFI
same,fluorescence intensity,[5]; [19],24.5 MFI
same,fluorescence intensity,[5]; [20],23.5 MFI
same,fluorescence intensity,[5]; [13],24.5 MFI
same,fluorescence intensity,[5]; [14],24.8 MFI
same,fluorescence intensity,[5]; [15],27 MFI
same,fluorescence intensity,[5]; [16],30.5 MFI
same,fluorescence intensity,[6]; [17],14 MFI
same,fluorescence intensity,[6]; [18],13.5 MFI
same,fluorescence intensity,[6]; [19],13 MFI
same,fluorescence intensity,[6]; [20],12 MFI
same,fluorescence intensity,[6]; [13],12.5 MFI
same,fluorescence intensity,[6]; [14],14 MFI
same,fluorescence intensity,[6]; [15],16 MFI
same,fluorescence intensity,[6]; [16],19.2 MFI
same,fluorescence intensity,[7]; [17],12 MFI
same,fluorescence intensity,[7]; [18],11.5 MFI
same,fluorescence intensity,[7]; [19],12.5 MFI
same,fluorescence intensity,[7]; [20],12.5 MFI
same,fluorescence intensity,[7]; [13],12.5 MFI
same,fluorescence intensity,[7]; [14],12 MFI
same,fluorescence intensity,[7]; [15],13.5 MFI
same,fluorescence intensity,[7]; [16],28.5 MFI
same,fluorescence intensity,[8]; [17],16.5 MFI
same,fluorescence intensity,[8]; [18],16.5 MFI
same,fluorescence intensity,[8]; [19],17 MFI
same,fluorescence intensity,[8]; [20],16 MFI
same,fluorescence intensity,[8]; [13],16.8 MFI
same,fluorescence intensity,[8]; [14],18 MFI
same,fluorescence intensity,[8]; [15],24.5 MFI
same,fluorescence intensity,[8]; [16],165 MFI
same,fluorescence intensity,[9]; [17],26.5 MFI
same,fluorescence intensity,[9]; [18],25 MFI
same,fluorescence intensity,[9]; [19],25.8 MFI
same,fluorescence intensity,[9]; [20],26 MFI
same,fluorescence intensity,[9]; [13],26.5 MFI
same,fluorescence intensity,[9]; [14],25.5 MFI
same,fluorescence intensity,[9]; [15],28 MFI
same,fluorescence intensity,[9]; [16],32.5 MFI
same,fluorescence intensity,[10]; [17],11.5 MFI
same,fluorescence intensity,[10]; [18],12 MFI
same,fluorescence intensity,[10]; [19],10.5 MFI
same,fluorescence intensity,[10]; [20],12 MFI
same,fluorescence intensity,[10]; [13],11.2 MFI
same,fluorescence intensity,[10]; [14],11.5 MFI
same,fluorescence intensity,[10]; [15],13 MFI
same,fluorescence intensity,[10]; [16],15.5 MFI
same,fluorescence intensity,[11]; [17],22.8 MFI
same,fluorescence intensity,[11]; [18],23.5 MFI
same,fluorescence intensity,[11]; [19],25.5 MFI
same,fluorescence intensity,[11]; [20],23.8 MFI
same,fluorescence intensity,[11]; [13],24.5 MFI
same,fluorescence intensity,[11]; [14],23.5 MFI
same,fluorescence intensity,[11]; [15],29.5 MFI
same,fluorescence intensity,[11]; [16],58 MFI
same,fluorescence intensity,[12]; [17],17 MFI
same,fluorescence intensity,[12]; [18],16.5 MFI
same,fluorescence intensity,[12]; [19],16 MFI
same,fluorescence intensity,[12]; [20],16 MFI
same,fluorescence intensity,[12]; [13],16.5 MFI
same,fluorescence intensity,[12]; [14],16.5 MFI

# Some of the entries so far, with tabs.
binder	measurement	setting	value
B1	fluorescence intensity	[6]; [16]	19.2 MFI
same	fluorescence intensity	[7]; [17]	12 MFI
same	fluorescence intensity	[7]; [18]	11.5 MFI
same	fluorescence intensity	[7]; [19]	12.5 MFI

# Random excerpt: 3 records from the list
binder,measurement,setting,value
B1,fluorescence intensity,[7]; [16],28.5 MFI
same,fluorescence intensity,[5]; [19],24.5 MFI
same,fluorescence intensity,[2]; [19],18 MFI
